The other results are listed elsewhere or left out.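 The calls were made as follows: active = dose-dependent thermal stabilisation significant by F-test of dose-response against flat model at 10% FDR; inactive = not significant.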
compound: Nc1nc2c(ncn2[C@@H]2O[C@H](COP(=O)(O)OP(=O)(O)OP(=O)(O)O)[C@@H](O)[C@H]2O)c(=O)[nH]1; assay: dose-dependent thermal stabilisation call (2D-TPP, DLPTP, 10% FDR) (binary (1 = stabilised)); higher = stabilised by the compound; details: system: Jurkat gel-filtered lysate; concentration range 1-500 µM
Experimental: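 2D thermal proteome profiling in gel-filtered Jurkat E6.1 lysate (2 mg/ml) treated with NaGTP (0, 1, 10, 100, 500 uM) for 10 min at room temperature, then heated 3 min at one of 12 temperatures (42-63.9 C). Soluble protein was quantified by TMT10 MS. The value is the DLPTP call of the paper: dose-dependent thermal stabilisation over all temperatures at 10% FDR (F-test of a dose-response against a flat model); one experiment, one call per tested protein.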

By UniProt entry, the sequences of proteins in these tests, tags left out. Where a name states a change or a piece, a line headed by the entry shows the natural chain unless it says otherwise.
UniProt Q9H0D6: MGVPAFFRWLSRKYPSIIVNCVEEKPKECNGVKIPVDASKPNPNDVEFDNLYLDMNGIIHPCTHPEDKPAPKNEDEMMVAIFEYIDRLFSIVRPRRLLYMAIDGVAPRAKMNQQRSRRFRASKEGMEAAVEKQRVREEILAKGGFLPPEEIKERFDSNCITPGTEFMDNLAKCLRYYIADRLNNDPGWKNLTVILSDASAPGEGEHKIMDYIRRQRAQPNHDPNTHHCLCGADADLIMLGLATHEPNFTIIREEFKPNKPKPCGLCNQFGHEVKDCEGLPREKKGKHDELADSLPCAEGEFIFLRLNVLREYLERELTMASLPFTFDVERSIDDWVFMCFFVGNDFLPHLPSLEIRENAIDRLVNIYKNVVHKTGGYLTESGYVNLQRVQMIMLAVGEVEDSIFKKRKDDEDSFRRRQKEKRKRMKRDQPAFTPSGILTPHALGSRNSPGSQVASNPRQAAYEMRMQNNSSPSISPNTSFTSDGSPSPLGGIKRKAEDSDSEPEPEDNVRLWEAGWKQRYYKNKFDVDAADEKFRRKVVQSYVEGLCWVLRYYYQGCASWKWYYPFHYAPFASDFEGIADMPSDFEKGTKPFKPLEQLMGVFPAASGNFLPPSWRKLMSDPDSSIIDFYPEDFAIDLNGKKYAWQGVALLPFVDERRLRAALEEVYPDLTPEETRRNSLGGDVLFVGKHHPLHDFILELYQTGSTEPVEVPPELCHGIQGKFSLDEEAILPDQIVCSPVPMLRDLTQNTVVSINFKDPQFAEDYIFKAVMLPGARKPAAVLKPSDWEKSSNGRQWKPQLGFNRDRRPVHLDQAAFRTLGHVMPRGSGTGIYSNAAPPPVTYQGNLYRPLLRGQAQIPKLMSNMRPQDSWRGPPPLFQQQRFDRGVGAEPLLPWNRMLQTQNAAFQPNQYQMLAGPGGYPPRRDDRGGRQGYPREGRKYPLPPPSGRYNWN
UniProt Q9UHP3: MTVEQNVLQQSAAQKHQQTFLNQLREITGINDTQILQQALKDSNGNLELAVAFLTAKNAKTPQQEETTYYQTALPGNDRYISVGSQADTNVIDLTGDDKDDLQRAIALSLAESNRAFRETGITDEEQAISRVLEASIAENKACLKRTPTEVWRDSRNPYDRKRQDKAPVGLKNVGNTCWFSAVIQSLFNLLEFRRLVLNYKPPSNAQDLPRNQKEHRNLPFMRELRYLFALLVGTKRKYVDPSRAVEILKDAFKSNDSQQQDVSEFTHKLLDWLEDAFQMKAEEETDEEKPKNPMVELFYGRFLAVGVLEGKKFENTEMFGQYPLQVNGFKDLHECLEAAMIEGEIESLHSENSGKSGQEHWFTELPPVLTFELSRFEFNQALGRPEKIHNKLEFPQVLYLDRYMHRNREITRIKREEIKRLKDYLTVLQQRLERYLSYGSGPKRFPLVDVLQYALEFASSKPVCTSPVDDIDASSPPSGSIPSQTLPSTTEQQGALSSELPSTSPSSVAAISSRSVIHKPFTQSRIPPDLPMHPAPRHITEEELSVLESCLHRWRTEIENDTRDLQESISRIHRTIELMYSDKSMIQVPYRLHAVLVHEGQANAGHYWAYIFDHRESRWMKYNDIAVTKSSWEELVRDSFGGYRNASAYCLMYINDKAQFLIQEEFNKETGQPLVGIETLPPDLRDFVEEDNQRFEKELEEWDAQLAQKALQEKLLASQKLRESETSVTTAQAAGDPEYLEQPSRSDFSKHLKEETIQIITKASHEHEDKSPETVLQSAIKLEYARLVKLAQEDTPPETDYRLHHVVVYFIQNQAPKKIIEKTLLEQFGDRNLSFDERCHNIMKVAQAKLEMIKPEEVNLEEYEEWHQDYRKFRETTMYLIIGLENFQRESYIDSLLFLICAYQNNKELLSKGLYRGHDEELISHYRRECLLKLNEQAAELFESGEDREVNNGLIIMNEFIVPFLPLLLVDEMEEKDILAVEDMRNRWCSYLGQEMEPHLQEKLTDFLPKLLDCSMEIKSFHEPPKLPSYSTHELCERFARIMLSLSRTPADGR
UniProt P23025: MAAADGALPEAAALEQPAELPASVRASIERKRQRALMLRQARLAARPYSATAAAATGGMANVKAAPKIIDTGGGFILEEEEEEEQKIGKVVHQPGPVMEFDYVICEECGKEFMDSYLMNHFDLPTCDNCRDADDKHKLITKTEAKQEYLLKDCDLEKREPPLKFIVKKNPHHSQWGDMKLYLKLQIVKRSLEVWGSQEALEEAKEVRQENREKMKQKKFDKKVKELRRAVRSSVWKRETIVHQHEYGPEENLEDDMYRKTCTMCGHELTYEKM
UniProt P15498: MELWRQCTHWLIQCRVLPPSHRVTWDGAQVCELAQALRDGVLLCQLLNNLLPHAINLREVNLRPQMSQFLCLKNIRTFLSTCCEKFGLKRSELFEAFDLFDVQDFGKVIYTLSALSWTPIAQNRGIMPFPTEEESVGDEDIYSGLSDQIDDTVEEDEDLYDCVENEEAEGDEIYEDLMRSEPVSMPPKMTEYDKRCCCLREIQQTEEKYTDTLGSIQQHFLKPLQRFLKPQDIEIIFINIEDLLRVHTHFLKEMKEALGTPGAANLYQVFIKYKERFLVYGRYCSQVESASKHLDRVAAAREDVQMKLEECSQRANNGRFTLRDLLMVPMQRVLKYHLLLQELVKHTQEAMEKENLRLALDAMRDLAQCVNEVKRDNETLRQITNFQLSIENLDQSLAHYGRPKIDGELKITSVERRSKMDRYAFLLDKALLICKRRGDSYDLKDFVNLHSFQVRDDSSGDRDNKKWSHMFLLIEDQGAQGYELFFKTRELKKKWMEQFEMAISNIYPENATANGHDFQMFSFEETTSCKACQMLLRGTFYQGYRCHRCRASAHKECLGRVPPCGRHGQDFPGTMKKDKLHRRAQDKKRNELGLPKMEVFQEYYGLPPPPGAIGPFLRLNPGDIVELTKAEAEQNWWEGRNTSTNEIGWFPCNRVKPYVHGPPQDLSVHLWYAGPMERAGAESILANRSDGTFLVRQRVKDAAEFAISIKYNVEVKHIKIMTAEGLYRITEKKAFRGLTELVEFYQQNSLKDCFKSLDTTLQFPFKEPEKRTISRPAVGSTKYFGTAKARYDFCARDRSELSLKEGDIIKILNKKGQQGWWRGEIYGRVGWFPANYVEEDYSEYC
UniProt Q9UID3: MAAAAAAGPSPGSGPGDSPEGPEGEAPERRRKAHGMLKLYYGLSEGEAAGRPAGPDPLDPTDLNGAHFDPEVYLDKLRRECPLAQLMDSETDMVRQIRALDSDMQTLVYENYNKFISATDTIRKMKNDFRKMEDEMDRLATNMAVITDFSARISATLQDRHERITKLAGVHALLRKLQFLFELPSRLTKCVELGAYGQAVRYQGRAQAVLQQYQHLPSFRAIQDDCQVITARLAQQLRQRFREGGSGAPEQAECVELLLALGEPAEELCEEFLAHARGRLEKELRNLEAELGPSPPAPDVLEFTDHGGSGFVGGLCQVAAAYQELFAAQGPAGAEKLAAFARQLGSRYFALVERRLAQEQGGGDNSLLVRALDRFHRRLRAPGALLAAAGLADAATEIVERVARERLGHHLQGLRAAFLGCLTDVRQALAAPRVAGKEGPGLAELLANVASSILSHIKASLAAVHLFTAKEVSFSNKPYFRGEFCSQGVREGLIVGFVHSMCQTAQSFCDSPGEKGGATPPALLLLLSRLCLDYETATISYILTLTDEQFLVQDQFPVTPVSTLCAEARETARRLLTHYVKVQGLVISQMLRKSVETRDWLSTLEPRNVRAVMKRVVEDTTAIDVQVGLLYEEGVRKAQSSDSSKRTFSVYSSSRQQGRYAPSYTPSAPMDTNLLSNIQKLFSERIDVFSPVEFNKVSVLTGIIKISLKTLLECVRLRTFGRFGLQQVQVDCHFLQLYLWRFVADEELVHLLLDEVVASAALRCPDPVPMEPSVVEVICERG
UniProt Q6ZT12: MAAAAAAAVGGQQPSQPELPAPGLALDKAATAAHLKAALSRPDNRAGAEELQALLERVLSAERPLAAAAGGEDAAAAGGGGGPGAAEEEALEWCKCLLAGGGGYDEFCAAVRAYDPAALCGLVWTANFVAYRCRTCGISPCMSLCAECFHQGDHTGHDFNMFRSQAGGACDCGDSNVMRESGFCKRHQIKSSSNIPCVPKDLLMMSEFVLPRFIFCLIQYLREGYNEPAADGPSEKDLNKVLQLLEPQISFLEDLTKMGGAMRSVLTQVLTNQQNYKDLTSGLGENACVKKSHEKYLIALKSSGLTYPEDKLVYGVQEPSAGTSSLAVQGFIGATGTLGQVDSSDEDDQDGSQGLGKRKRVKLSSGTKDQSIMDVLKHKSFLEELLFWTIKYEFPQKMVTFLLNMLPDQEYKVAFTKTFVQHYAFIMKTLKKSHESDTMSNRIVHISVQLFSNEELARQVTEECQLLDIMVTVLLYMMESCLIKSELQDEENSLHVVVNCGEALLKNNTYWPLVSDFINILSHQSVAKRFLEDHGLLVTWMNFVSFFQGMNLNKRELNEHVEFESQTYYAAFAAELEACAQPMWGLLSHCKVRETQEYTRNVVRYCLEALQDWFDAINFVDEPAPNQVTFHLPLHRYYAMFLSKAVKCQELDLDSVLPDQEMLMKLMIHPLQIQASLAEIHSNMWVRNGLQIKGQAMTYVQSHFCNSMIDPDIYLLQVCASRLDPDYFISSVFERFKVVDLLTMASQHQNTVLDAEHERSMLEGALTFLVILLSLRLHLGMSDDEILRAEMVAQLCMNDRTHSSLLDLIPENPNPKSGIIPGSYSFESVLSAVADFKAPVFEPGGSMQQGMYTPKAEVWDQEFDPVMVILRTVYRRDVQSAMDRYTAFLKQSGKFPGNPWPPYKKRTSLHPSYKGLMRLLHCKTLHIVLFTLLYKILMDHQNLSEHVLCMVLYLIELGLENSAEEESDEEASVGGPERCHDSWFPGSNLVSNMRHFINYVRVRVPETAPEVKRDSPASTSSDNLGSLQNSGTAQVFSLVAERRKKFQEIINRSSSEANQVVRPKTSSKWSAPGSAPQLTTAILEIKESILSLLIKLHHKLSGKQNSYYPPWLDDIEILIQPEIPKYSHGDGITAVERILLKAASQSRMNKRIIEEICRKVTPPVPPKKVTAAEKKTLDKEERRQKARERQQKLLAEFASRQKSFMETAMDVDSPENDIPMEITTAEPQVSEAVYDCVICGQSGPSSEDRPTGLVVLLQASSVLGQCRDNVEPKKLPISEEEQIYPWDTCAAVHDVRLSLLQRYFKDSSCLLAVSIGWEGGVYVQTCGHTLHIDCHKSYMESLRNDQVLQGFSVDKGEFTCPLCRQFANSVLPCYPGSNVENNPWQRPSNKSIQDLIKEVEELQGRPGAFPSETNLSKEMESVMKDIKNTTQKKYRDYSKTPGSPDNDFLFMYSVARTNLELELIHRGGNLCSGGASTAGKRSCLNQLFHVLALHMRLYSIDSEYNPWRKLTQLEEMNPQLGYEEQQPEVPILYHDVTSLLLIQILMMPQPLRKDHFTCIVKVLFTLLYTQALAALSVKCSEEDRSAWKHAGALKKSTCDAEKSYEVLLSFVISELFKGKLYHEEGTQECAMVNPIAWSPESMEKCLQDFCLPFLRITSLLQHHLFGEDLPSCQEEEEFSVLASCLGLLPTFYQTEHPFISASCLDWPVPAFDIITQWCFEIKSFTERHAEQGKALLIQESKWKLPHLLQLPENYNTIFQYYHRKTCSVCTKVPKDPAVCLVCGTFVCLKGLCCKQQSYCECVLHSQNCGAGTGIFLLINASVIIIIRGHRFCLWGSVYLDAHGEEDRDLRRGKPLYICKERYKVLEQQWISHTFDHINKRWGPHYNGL
UniProt Q6GPH4: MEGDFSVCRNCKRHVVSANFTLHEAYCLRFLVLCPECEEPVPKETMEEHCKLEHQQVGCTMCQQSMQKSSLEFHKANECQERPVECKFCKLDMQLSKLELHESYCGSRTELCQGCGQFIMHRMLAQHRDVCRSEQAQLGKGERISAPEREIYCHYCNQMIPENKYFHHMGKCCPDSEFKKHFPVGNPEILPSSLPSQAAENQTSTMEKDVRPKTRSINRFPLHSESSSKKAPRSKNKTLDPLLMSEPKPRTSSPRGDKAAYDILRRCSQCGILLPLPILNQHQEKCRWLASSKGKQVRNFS
UniProt O43829: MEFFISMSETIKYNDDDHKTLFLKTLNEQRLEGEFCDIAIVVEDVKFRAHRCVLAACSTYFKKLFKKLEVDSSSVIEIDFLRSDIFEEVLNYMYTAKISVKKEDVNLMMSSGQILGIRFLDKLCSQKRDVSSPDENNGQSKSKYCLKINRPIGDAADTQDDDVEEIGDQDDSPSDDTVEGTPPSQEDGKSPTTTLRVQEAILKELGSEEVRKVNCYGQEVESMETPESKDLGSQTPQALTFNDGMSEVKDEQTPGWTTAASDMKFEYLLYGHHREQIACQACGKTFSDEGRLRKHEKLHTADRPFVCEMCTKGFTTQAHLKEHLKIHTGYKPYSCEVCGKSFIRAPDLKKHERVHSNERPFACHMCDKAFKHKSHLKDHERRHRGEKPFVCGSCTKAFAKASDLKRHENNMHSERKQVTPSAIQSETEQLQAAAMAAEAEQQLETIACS

Target	dose-dependent thermal stabilisation call
USP9X (UniProt Q93008)	active: 1
XRN2 (UniProt Q9H0D6)	inactive: 0
USP32 (UniProt Q8NFA0)	inactive: 0
UBL5 (UniProt Q9BZL1)	inactive: 0
ZFAND3 (UniProt Q9H8U3)	inactive: 0
VPS36 (UniProt Q86VN1)	inactive: 0
VTA1 (UniProt Q9NP79)	inactive: 0
YTHDF2 (UniProt Q9Y5A9)	inactive: 0
USP25 (UniProt Q9UHP3)	inactive: 0
XPA (UniProt P23025)	inactive: 0
USP1 (UniProt O94782)	inactive: 0
USP39 (UniProt Q53GS9)	inactive: 0
VPS16 (UniProt Q9H269)	inactive: 0
WRAP73 (UniProt Q9P2S5)	inactive: 0
WDR37 (UniProt Q9Y2I8)	inactive: 0
WDR26 (UniProt Q9H7D7)	inactive: 0
YAE1D1 (UniProt Q9NRH1)	inactive: 0
ZC3H13 (UniProt Q5T200)	inactive: 0
VLDLR (UniProt P98155)	inactive: 0
XPO1 (UniProt O14980)	active: 1

Target	dose-dependent thermal stabilisation call
VAV1 (UniProt P15498)	active: 1
WDR54 (UniProt Q9H977)	inactive: 0
VPS33B (UniProt Q9H267)	active: 1
VPS51 (UniProt Q9UID3)	inactive: 0
VAPA (UniProt Q9P0L0)	inactive: 0
UBR3 (UniProt Q6ZT12)	inactive: 0
VCP (UniProt P55072)	inactive: 0
WDR77 (UniProt Q9BQA1)	inactive: 0
XRCC5 (UniProt P13010)	inactive: 0
WDR82 (UniProt Q6UXN9)	inactive: 0
WDR62 (UniProt O43379)	inactive: 0
VPS13C (UniProt Q709C8)	inactive: 0
UBLCP1 (UniProt Q8WVY7)	inactive: 0
XAF1 (UniProt Q6GPH4)	inactive: 0
USP5 (UniProt P45974)	inactive: 0
YBX1 (UniProt P67809)	inactive: 0
WIPI2 (UniProt Q9Y4P8)	inactive: 0
UPF1 (UniProt Q92900)	active: 1
USP8 (UniProt P40818)	active: 1
ZBTB14 (UniProt O43829)	inactive: 0

3 records picked at random from the list so far:
Target	dose-dependent thermal stabilisation call
XRCC5 (UniProt P13010)	inactive: 0
XAF1 (UniProt Q6GPH4)	inactive: 0
ZBTB14 (UniProt O43829)	inactive: 0

Source: the supplement of paper PMC7666118
